Results deposited as PubChem BioAssay AID1671195 (Yale University, 2021).
Shown is a random part of about 22,000 deposited reagents. In the full data, about 1,510 (6.9%) got an active call. 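Active includes knockdowns raising or lowering LDL uptake; positive z-scores mean more uptake, negative mean less.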

Assay: 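Knockdowns that increase or decrease uptake of fluorescent LDL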 (primary screen)
System: human Huh7 hepatoma cells
Reagents: siRNA pool against human genes, 18 nM
Time to read-out: about 2 to 2.5 days of knockdown, then 8 h LDL uptake
Challenge: DiI-labelled LDL at 30 µg/ml for 8 h, in lipoprotein-deficient serum medium
Measured: 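Fluorescent LDL signal imaged in cells, scaled to the plate median, robust z-score for each replicate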
Direction: robust z-score: higher = more LDL uptake after knockdown
Hit rule: 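Active when two or more replicates show a robust z-score above 2 or below -2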

gene	robust z-score, replicate 1	robust z-score, replicate 2	robust z-score, replicate 3	activity call
TAMM41	-0.696	-0.398	-0.198	inactive
PCDHAC2	3.74	4.01	4.22	active
LCAT	-0.169	-0.396	-0.588	inactive
TNFAIP8	0.83	0.173	5.78	inactive
ZNF329	2.12	1.66	2.27	active
AFM	-0.61	-1.1	-1.03	inactive
LOC391840 (retired record)	-0.55	-0.143	-0.0596	inactive
ADPGK	0.383	0.236	0.89	inactive
MRPS30	0.198	0.562	-0.166	inactive
APOBEC3C	-0.711	-0.944	-0.485	inactive
PTPRD	0.617	0.278	0.352	inactive
ADGRA2	0.235	2.5	0.878	inactive
H2AC1	-0.496	0.0631	-0.265	inactive
WNT3A	-1.06	-0.709	-1.1	inactive
FAM184A	-0.815	0.453	0.246	inactive
PYHIN1	2.87	1.83	2.68	active
BNIPL	-0.695	-0.00168	0.268	inactive
LOC400940	1.44	1.55	2.29	inactive
LOC285018 (retired record)	-1.08	-1.53	-1.51	inactive
TM9SF2	0.776	1.03	0.981	inactive
VIT	-0.0219	0.569	-0.0154	inactive
WHAMM	2.34	1.24	2.35	active
SNRPB2	-1.23	-1.13	-1.46	inactive
DAPK1	-0.373	-1.25	-0.536	inactive
CPA1	1.03	0.791	0.901	inactive
EHD4	-1.11	0.116	-0.216	inactive
RFX1	-1.22	-0.866	-1.02	inactive
GCSH	-0.176	-0.0916	0.182	inactive

Reprinted from above for reference:
gene	robust z-score, replicate 1	robust z-score, replicate 2	robust z-score, replicate 3	activity call
VIT	-0.0219	0.569	-0.0154	inactive
WHAMM	2.34	1.24	2.35	active
SNRPB2	-1.23	-1.13	-1.46	inactive
